Data reported in article PMC12027149 (International Journal of Molecular Sciences, 2025).

Tested on: differentiated SH-SY5Y cells
Experiment: MTT cytotoxicity assay on differentiated SH-SY5Y cells
Format: cell-based, human
Conditions: cytotoxicity dose–response curve, 24 h
Method: The SH–SY5Y cell line (DSMZ code: ACC 209) was supplied by the German Collection of Microorganisms and the Cell Culture GmbH (DSMZ) biobank and was cultured according to the supplier’s information. Cells were grown in DMEM:F12 (Dulbecco’s Modified Eagle’s Medium/F12), supplemented with 10% fetal bovine serum (FBS) and 1% antibiotic–antimycotic in a humidified atmosphere with 5% CO2 at 37 °C. Subculture was performed according to biobank instructions when the cultures reached 80–85% of confluence.
SH-SY5Y cells were trypsinized (trypsin/EDTA; 0.25%) and the cell suspension was seeded in 96-well plates at a density of 2 × 10^4 cells/well and incubated until reaching 80-85% confluence. Cells were differentiated to obtain a dopaminergic neuronal phenotype according to Ferreira et al. with slight modifications (Figure 10). To ensure reproducibility and optimal neuronal differentiation, cells were used between passages (15–25). Briefly, cells were seeded in complete DMEM:F12 medium containing 10 µM retinoic acid (RA) and 2.5% fetal bovine serum (FBS) and maintained for 4 days, with the medium changed on day 2. After this time, the medium was replaced by DMEM:F12 supplemented with 10 µM RA, 80 nM 12-O-tetradecanoylphorbol-13-acetate (TPA), and 2.5% FBS, and the cells were maintained for an additional 4 days (with the medium changed at day 6). The cytotoxicity assay was performed on day 8.
The SH-SY5Y cells’ viability was evaluated after exposure for 24 h to […]. The 3-(4,5-dimethylthiazol-2-yl) − 2,5-diphenyltetrazolium bromide (MTT) colorimetric assay was performed following the methodology described by Joana Silva et al.. The experimental dose–response results were fitted to the Hill’s sigmoidal non-linear regression model. For each cathinone, the LC50 values (cathinone concentration showing 50% lethality) and their confidence interval at the 95% confidence level ([CI]) were determined. The Hill slope, also known as the Hill coefficient, which describes the steepness of a dose–response curve, and the minimum observable adverse effect concentration (LOAEL) were also determined for all cathinones.

Row | SMILES | Hillslope
1 | CC(C(=O)c1ccccc1Cl)N(C)C (racemic) [2-CDC (12), (R,S)-1-(2-chlorophenyl)-2-(dimethylamino)propan-1-one] | 12.4
2 | CCNC(C)C(=O)c1ccccc1Cl (racemic) [2-CEC (4), (R,S)-1-(2-chlorophenyl)-2-(ethylamino)propan-1-one] | 4.4
3 | CNC(C)C(=O)c1ccccc1Cl (racemic) [2-CMC (1), (R,S)-1-(2-chlorophenyl)-2-(methylamino)propan-1-one] | 4.3
4 | CC(C(=O)c1ccccc1Cl)N1CCCC1 (racemic) [2-Cl-PPP (9), (R,S)-1-(2-chlorophenyl)-2-(pyrrolidine-1-yl)propan-1-one] | 2.4
5 | CCCCNC(C)C(=O)c1cccc(Cl)c1 (racemic) [3-CBC (7), (R,S)-2-(butylamino)-1-(3-chlorophenyl)propan-1-one] | 1.4
6 | CC(C(=O)c1cccc(Cl)c1)N(C)C (racemic) [3-CDC (13), (R,S)-1-(3-chlorophenyl)-2-(dimethylamino)propan-1-one] | 6.3
7 | CCNC(C)C(=O)c1cccc(Cl)c1 (racemic) [3-CEC (5), (R,S)-1-(3-chlorophenyl)-2-(ethylamino)propan-1-one] | 1.7
8 | CC(C)NC(C)C(=O)c1cccc(Cl)c1 (racemic) [3-CIC (17), (R,S)-1-(3-chlorophenyl)-2-(isopropylamino)propan-1-one] | 4.4
9 | CNC(C)C(=O)c1cccc(Cl)c1 (racemic) [3-CMC (2), (R,S)-1-(3-chlorophenyl)-2-(methylamino)propan-1-one] | 2.5
10 | CCN(CC)C(C)C(=O)c1cccc(Cl)c1 (racemic) [3-Cl-DEC (15), (R,S)-1-(3-chlorophenyl)-2-(diethylamino)propan-1-one] | 4.3
11 | CC(C(=O)c1cccc(Cl)c1)N1CCCC1 (racemic) [3-Cl-PPP (10), (R,S)-1-(3-chlorophenyl)-2-(pyrrolidine-1-yl)propan-1-one] | 1.7
12 | CC(NC(C)(C)C)C(=O)c1cccc(Cl)c1 (racemic) [3-Cl-TBC (19), (R,S)-2-(tert-butylamino)-1-(3-chlorophenyl)propan-1-one] | 3.5
13 | CCCCNC(C)C(=O)c1ccc(Cl)cc1 (racemic) [4-CBC (8), (R,S)-2-(butylamino)-1-(4-chlorophenyl)propan-1-one] | 10.5
14 | CC(C(=O)c1ccc(Cl)cc1)N(C)C (racemic) [4-CDC (14), (R,S)-1-(4-chlorophenyl)-2-(dimethylamino)propan-1-one] | 5.6
15 | CCNC(C)C(=O)c1ccc(Cl)cc1 (racemic) [4-CEC (6), (R,S)-1-(4-chlorophenyl)-2-(ethylamino)propan-1-one] | 3.4
16 | CC(C)NC(C)C(=O)c1ccc(Cl)cc1 (racemic) [4-CIC (18), (R,S)-1-(4-chlorophenyl)-2-(isopropylamino)propan-1-one] | 4.5
17 | CNC(C)C(=O)c1ccc(Cl)cc1 (racemic) [4-CMC (3), (R,S)-1-(4-chlorophenyl)-2-(methylamino)propan-1-one] | 1.6
18 | CCN(CC)C(C)C(=O)c1ccc(Cl)cc1 (racemic) [4-Cl-DEC (16), (R,S)-1-(4-chlorophenyl)-2-(diethylamino)propan-1-one] | 17.4
19 | CC(C(=O)c1ccc(Cl)cc1)N1CCCC1 (racemic) [4-Cl-PPP (11), (R,S)-1-(4-chlorophenyl)-2-(pyrrolidine-1-yl)propan-1-one] | 0.9
20 | CC(NC(C)(C)C)C(=O)c1ccc(Cl)cc1 (racemic) [4-Cl-TBC (20), (R,S)-2-(tert-butylamino)-1-(4-chlorophenyl)propan-1-one] | 2.4
21 | CNC(C)C(=O)c1ccc(C)cc1 (stereo not drawn) [Mephedrone (M), Mephedrone, reference compound] | 2.3
